Reference: patent publication US8338443B2, “Chemical compounds” (priority 2006, dated 2012)
Some of these results come from one statement about several compounds together.

Experiments:
Format in all cases: in vivo
Heliothis virescens = Heliothis virescens (tobacco budworm) egg test on artificial diet; settings: 200 ppm by pipetting, eggs 0-24 h old on artificial diet, 4 days; egg mortality, larval mortality, growth regulation
Plutella xylostella = Plutella xylostella (diamond back moth) larvae test on artificial diet; settings: 18.2 ppm by pipetting on artificial diet, L2 larvae, 5 days; larval mortality, antifeedant, growth regulation
Diabrotica balteata = Diabrotica balteata (corn root worm) larvae test on artificial diet; settings: 200 ppm (concentration in well 18 ppm) on artificial diet, L2 larvae, 5 days; larval mortality, growth regulation

O=C(Nc1ccc2cccnc2c1C1=CCN(C/C=C/c2ccc(Cl)cc2)CC1)c1ccnc(Cl)c1 [XXIX-3]
control of Heliothis virescen (Heliothis virescens): at least 80%

O=C(Nc1ccc2cccnc2c1C1CCN(C/C=C/c2ccc(Cl)cc2)CC1)c1ccnc(Cl)c1 [Compound I-3]
control of Heliothis virescen (Heliothis virescens): at least 80% | control of Plutella xylostella (Plutella xylostella): at least 80% | control of Diabrotica balteata (Diabrotica balteata): at least 80%

O=C(Nc1ccc2nccnc2c1C1CCN(C/C=C/c2ccc(Cl)cc2)CC1)c1ccnc(Cl)c1 [XXVIII-3]
control of Heliothis virescen (Heliothis virescens): at least 80% | control of Diabrotica balteata (Diabrotica balteata): at least 80%

O=C(Nc1ccc2scnc2c1C1CCN(C/C=C/c2ccc(Cl)cc2)CC1)c1ccnc(Cl)c1 [II-3, 2-Chloro-N-(4-{1-[(E)-3-(4-chloro-phenyl)-allyl]-piperidin-4-yl}-benzothiazol-5-yl)-isonicotinamide]
control of Heliothis virescen (Heliothis virescens): at least 80% | control of Plutella xylostella (Plutella xylostella): at least 80%

Cc1nc2c(C3=CCN(C/C=C/c4ccc(Cl)cc4)CC3)c(NC(=O)c3ccnc(Cl)c3)ccc2s1 [XXXI-3]
control of Heliothis virescen (Heliothis virescens): at least 80%

O=C(Nc1ccc2scnc2c1C1CCN(C/C=C/c2ccc(OC(F)(F)F)cc2)CC1)c1ccnc(Cl)c1 [II-7]
control of Heliothis virescen (Heliothis virescens): at least 80% | control of Plutella xylostella (Plutella xylostella): at least 80% | control of Diabrotica balteata (Diabrotica balteata): at least 80%

O=C(Nc1ccc2cn[nH]c2c1C1CCN(C/C=C/c2ccc(Cl)cc2)CC1)c1ccnc(Cl)c1 [XXVII-3]
control of Plutella xylostella (Plutella xylostella): at least 80%

O=C(Nc1ccc2ncsc2c1C1CCN(C/C=C/c2ccc(Cl)cc2)CC1)c1ccnc(Cl)c1 [Compound V-3]
control of Heliothis virescen (Heliothis virescens): at least 80%
